In the supplement of paper PMC10849652:
The list shows a part of the results.

Sequences of proteins named here, by UniProt entry; tags and fusion partners are left off. A change or cut given only in a name is not applied to a line headed by its entry.
UniProt Q96MX0: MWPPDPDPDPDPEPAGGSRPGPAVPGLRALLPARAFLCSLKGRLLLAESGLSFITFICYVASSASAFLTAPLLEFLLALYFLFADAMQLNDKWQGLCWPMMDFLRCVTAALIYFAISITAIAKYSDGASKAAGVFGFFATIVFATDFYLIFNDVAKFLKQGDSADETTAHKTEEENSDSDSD
UniProt Q9P2D1: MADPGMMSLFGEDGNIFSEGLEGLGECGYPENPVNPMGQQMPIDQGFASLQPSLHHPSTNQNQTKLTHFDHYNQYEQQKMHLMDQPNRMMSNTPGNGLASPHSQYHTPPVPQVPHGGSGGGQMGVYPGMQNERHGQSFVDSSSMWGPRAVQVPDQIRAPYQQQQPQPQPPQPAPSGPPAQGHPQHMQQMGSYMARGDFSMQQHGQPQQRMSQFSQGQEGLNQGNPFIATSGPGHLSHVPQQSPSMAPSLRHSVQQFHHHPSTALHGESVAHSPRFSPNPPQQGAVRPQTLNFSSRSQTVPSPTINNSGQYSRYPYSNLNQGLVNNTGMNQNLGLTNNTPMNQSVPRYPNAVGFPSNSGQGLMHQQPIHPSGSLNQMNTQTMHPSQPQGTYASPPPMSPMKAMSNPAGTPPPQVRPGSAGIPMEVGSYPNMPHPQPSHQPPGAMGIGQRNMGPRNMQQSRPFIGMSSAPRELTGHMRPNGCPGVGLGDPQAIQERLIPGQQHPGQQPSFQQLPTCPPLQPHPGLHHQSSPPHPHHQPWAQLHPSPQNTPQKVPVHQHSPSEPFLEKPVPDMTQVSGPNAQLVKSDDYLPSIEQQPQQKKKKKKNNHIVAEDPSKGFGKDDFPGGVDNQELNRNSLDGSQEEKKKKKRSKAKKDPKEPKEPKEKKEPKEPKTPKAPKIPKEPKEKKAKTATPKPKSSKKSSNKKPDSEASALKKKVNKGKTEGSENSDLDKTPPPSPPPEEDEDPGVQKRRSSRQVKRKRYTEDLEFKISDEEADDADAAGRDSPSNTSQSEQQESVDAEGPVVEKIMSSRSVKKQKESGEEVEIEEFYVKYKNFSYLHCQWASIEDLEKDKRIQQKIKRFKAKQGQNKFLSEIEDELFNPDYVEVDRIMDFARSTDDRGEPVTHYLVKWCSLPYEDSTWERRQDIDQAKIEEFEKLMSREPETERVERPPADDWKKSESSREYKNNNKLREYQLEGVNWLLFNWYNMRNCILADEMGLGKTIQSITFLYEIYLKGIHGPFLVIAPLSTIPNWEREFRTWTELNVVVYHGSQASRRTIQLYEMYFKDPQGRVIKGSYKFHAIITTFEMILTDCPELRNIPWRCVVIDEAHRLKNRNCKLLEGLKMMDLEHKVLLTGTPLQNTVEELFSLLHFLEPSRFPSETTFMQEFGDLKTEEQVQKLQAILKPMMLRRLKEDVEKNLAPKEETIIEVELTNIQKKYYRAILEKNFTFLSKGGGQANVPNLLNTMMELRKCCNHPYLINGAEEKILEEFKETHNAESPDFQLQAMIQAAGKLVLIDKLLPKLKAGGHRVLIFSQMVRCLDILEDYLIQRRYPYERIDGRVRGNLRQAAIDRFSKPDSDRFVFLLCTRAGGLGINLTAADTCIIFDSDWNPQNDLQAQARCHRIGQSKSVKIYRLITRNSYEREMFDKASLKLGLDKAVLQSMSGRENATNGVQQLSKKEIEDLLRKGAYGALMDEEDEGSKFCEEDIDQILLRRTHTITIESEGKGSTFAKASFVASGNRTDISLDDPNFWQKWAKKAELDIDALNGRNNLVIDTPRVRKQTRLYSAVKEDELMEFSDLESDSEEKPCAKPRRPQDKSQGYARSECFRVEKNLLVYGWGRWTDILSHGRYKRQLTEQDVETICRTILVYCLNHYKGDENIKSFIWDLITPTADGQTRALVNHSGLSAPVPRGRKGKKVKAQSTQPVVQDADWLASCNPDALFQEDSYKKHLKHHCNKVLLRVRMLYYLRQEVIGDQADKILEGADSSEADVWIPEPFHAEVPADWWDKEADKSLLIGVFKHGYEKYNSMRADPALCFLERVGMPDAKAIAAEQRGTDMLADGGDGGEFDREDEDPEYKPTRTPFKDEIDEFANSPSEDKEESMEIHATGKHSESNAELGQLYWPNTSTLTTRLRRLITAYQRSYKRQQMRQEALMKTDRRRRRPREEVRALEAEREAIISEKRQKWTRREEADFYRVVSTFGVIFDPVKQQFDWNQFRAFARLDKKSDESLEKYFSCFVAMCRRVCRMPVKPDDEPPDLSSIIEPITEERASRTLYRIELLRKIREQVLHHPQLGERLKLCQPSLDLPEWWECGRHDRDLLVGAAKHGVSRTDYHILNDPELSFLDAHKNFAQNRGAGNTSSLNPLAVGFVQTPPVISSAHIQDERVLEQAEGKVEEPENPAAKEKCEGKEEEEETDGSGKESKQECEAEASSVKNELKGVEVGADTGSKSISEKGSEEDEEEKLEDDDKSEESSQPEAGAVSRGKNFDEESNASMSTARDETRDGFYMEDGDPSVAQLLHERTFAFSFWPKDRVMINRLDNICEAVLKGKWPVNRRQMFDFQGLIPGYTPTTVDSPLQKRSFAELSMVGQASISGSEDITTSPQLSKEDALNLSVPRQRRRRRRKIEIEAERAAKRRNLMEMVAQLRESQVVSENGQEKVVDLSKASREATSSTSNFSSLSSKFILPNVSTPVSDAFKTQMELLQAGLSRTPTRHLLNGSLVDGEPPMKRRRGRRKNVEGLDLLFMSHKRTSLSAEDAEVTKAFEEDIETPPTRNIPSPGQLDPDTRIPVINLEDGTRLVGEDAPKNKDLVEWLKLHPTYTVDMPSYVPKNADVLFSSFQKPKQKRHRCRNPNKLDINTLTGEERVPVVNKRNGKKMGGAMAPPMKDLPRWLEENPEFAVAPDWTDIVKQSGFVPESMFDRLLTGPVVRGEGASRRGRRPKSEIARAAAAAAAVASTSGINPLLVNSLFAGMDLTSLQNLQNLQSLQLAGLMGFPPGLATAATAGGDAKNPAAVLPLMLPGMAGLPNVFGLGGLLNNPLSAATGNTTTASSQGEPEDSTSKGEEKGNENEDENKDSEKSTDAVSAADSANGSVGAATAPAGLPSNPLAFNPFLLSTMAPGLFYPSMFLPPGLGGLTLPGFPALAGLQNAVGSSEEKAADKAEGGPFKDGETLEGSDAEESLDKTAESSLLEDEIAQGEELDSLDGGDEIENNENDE
UniProt Q9H078: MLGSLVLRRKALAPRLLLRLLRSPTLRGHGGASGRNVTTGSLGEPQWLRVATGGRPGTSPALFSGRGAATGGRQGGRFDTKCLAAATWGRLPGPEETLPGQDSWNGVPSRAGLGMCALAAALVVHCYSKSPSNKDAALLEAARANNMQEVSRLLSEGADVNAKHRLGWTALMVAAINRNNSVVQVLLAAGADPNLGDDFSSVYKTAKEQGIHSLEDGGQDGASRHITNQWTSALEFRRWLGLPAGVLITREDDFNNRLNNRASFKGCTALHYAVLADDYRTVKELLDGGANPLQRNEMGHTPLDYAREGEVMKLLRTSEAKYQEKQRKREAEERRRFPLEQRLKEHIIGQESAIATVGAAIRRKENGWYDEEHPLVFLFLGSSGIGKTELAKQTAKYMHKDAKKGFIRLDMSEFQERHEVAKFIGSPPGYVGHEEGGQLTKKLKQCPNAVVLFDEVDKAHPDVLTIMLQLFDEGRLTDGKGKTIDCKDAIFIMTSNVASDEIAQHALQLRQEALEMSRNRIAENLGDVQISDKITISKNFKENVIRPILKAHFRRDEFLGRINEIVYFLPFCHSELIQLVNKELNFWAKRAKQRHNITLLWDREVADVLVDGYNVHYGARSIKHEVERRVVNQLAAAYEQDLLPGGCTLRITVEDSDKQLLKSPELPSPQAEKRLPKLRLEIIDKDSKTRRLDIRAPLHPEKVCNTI
UniProt Q92989: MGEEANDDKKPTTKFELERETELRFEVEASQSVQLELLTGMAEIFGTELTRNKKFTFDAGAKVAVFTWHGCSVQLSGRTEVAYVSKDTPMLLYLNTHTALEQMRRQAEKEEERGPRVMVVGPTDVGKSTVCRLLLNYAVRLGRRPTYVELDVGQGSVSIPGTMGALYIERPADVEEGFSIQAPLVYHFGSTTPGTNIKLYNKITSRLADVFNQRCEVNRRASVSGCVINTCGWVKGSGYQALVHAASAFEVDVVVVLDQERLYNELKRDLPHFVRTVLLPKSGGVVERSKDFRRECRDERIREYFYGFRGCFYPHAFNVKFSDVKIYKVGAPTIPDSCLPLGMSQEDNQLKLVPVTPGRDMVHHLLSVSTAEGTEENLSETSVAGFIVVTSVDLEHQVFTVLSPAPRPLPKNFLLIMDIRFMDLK
UniProt Q96KA5: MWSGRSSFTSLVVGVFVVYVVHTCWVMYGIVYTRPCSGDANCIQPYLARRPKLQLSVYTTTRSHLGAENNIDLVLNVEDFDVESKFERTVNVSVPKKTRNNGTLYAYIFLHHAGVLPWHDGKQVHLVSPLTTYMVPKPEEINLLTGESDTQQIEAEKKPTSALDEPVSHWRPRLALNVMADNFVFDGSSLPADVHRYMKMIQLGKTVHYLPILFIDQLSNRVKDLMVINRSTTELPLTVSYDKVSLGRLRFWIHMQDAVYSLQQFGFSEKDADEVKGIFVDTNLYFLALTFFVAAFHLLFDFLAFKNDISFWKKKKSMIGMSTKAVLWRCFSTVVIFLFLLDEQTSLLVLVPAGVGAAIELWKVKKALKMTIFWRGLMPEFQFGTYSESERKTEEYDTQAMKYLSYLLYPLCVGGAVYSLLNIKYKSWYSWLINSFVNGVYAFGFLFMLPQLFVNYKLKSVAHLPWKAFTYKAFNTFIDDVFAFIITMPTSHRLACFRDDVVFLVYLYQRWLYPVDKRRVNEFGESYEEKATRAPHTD
UniProt P09496: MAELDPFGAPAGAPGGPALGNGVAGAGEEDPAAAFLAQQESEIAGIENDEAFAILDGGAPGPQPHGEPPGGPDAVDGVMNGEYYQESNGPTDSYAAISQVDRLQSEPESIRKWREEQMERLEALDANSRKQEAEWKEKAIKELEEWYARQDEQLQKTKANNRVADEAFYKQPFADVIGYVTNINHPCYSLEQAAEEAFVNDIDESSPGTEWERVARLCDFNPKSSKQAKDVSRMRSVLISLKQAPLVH
UniProt P30622: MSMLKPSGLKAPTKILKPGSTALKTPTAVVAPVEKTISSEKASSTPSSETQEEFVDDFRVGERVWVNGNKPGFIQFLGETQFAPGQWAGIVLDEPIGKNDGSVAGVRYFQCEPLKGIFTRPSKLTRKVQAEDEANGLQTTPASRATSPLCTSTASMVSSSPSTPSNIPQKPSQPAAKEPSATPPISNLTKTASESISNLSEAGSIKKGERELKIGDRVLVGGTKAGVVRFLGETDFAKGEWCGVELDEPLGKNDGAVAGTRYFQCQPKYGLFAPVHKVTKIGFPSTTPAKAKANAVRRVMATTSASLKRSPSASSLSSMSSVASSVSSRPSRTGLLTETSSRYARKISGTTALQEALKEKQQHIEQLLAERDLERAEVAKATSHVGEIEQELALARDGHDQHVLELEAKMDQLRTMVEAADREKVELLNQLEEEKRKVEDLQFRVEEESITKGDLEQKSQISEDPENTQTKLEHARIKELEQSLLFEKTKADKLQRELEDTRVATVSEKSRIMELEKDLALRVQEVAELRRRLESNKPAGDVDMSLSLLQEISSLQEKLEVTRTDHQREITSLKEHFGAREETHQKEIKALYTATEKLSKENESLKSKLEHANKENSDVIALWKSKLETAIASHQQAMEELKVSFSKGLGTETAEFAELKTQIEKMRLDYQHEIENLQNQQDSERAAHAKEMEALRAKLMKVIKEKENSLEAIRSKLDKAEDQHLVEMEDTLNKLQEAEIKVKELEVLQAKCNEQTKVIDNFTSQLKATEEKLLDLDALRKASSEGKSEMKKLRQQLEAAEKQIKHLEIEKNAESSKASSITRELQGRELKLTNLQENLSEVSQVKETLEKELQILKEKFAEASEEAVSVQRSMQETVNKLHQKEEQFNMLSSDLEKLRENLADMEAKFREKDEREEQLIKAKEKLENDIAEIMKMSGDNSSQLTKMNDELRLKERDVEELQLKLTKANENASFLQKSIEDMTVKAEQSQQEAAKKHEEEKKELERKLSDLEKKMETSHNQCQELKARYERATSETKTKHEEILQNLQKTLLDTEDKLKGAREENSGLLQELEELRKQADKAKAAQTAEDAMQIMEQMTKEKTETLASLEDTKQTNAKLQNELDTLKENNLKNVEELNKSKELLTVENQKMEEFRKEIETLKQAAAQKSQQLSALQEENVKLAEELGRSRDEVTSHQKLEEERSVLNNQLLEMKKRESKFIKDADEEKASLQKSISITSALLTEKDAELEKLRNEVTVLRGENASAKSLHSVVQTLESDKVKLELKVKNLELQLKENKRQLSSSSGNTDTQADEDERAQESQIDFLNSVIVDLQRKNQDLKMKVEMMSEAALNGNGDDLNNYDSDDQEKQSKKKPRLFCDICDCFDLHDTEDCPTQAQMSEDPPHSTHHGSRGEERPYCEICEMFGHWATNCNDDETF

What was measured:
Experiment in all cases: log2 fold change, soluble protein after heating vs DMSO (PISA); higher = thermal stabilisation; K562 lysate, 10 uM; active = over 0.2 and 3.5 SD of the protein, either way, in both replicates (recomputed)
erlotinib = compound: C#Cc1cccc(Nc2ncnc3cc(OCCOC)c(OCCOC)cc23)c1 [erlotinib]
Method in brief: (§1)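 Log-two fold change in thermal stability relative to solvent controls is reported from duplicates. For each sample, crude K562 extract from dounce-homogenised pellets in PBS pH 7.4 with 1 mM MgCl2, at 1 mg/mL protein, was treated with 10 μM compound for 30 min. Aliquots heated for 3 min across 48°C-58°C were pooled, brought to 0.5% NP-40 at 4°C and cleared at 21,000xg for 90 min. The supernatant was quantified by TMTpro 16plex LC-MS/MS with channel sums equalised.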

[1] = compound: C/C(=N\NC(=O)C1=CC(=CC=C1)S(=O)(=O)N2CCOCC2)/C3=C(C=CC(=C3)Cl)O
Method in brief: as §1

[2] = compound: C1=CC(=CC=C1C2=NC3=C(N2)C=C(C=C3)C(=O)N)OC4=CC=C(C=C4)Cl
Method in brief: as §1

[3] = compound: C1=CC2=C(C=CC(=C2)/C=C\3/C(=O)NC(=NCC4=CC=CS4)S3)N=C1
Method in brief: as §1

[4] = compound: C1=CC2=NC=CN=C2C=C1/C=C/3\C(=O)NC(=O)S3
Method in brief: as §1

[5] = compound: C1=CC=C(C=C1)C2=NC(=C(N2)C3=CC=NC=C3)C4=CC(=C(C=C4)Cl)O
Method in brief: as §1

[6] = compound: C1=CC=C2C(=C1)C3=NNC4=CC=CC(=C43)C2=O
Method in brief: as §1

[7] = compound: C1CCN(C1)C(=O)NC2=CC=CC(=C2)NC3=NC=C(C(=N3)NCCC4=CN=CN4)Br
Method in brief: as §1

[8] = compound: C1CN(CCC1(CC2=CC=C(C=C2)Cl)N)C3=NC=NC4=C3C=CN4
Method in brief: as §1

IRAK-1-4 Inhibitor I = compound: C1COCCN1CCN2C3=CC=CC=C3N=C2NC(=O)C4=CC(=CC=C4)[N+](=O)[O-] [IRAK-1-4 Inhibitor I]
Method in brief: as §1

ibrutinib = compound: C=CC(=O)N1CCC[C@@H](n2nc(-c3ccc(Oc4ccccc4)cc3)c3c(N)ncnc32)C1 [ibrutinib]
Method in brief: as §1

[9] = compound: CC(=O)c1cnc2ccc(-c3cc(Cl)c(O)c(Cl)c3)nc2c1N[C@H]1CC[C@H](CN(C)C)CC1
Method in brief: as §1

ralimetinib = compound: CC(C)(C)Cn1c(N)nc2ccc(-c3[nH]c(C(C)(C)C)nc3-c3ccc(F)cc3)nc21 [ralimetinib]
Method in brief: as §1

[10] = compound: CC(C)(O)CC(=O)NCCn1ccc2ncnc(Nc3ccc(Oc4cccc(C(F)(F)F)c4)c(Cl)c3)c21
Method in brief: as §1

[11] = compound: CC(C)C1=C2N=C(C=C(N2N=C1)NCC3=CC=CC=C3)NCCCCCCN
Method in brief: as §1

[12] = compound: CC1=C(C(CC(=O)N1)C2=CC=C(C=C2)C(F)(F)F)C(=O)NC3=C(C=C4C(=C3)C=NN4)F
Method in brief: as §1

[13] = compound: CC1=C(C2=C(C=C1)C(=O)C3=CC=CC=C3N2CCCN)C
Method in brief: as §1

[14] = compound: CC1=C(C=C(C=C1)NC(=O)C2=CC(=CC=C2)C(C)(C)C#N)NC3=CC4=C(C=C3)N=CN(C4=O)C
Method in brief: as §1

[15] = compound: CC1=C(C=C(C=C1)NC(=O)C2=CC(=CC=C2)N(C)C)NC(=O)C3=CC=C(C=C3)O
Method in brief: as §1

[16] = compound: CC1=CC=C(C=C1)SC2=C3C=C(SC3=CN=C2)C(=O)N
Method in brief: as §1

Measured: log2 fold change

CHMP4C (UniProt Q96CF2)
inactive: erlotinib -0.028 | [1] 0.028 | [2] 0.04 | [3] 0.022 | [4] -0.024 | [5] 0.024 | [6] -0.023 | [7] -0.022 | [8] -0.015 | IRAK-1-4 Inhibitor I 0.057 | ibrutinib 0.085 | [9] -0.025 | ralimetinib -0.16 | [10] -0.024 | [11] -0.005 | [12] 0.04 | [13] -0.022 | [14] 0.022 | [15] -0.03 | [16] -0.054

CMTM3 (UniProt Q96MX0)
inactive: erlotinib 0.002 | [1] -0.112 | [2] 0.053 | [3] -0.084 | [4] -0.009 | [5] -0.011 | [6] -0.019 | [7] -0.083 | [8] -0.089 | IRAK-1-4 Inhibitor I -0.012 | ibrutinib -0.036 | [9] 0.036 | ralimetinib 0.093 | [10] 0.104 | [11] -0.022 | [12] 0.052 | [13] -0.06 | [14] 0.06 | [15] -0.039 | [16] -0.016

CHD7 (UniProt Q9P2D1)
inactive: erlotinib -0.035 | [1] -0.072 | [2] -0.036 | [3] -0.028 | [4] 0.055 | [5] -0.008 | [6] 0.054 | [7] -0.024 | [8] 0.02 | IRAK-1-4 Inhibitor I 0 | ibrutinib 0.079 | [9] 0.002 | ralimetinib 0.082 | [10] -0.063 | [11] 0.009 | [12] 0.036 | [13] -0.044 | [14] 0.074 | [15] 0.033 | [16] 0.048

CLPB isoform 2 (UniProt Q9H078)
inactive: erlotinib 0.023 | [1] -0.029 | [2] -0.028 | [3] 0.02 | [4] -0.047 | [5] -0.018 | [6] 0.006 | [7] 0.022 | [8] 0.055 | IRAK-1-4 Inhibitor I -0.002 | [9] -0.016 | ralimetinib 0.002 | [10] -0.024 | [11] -0.006 | [12] 0.002 | [13] -0.054 | [14] -0.011 | [15] 0.025 | [16] 0.012

CLPP (UniProt Q16740)
inactive: erlotinib -0.045 | [1] 0.026 | [2] -0.015 | [3] 0.043 | [4] -0.008 | [5] -0.031 | [6] 0.013 | [7] 0.007 | [8] 0.033 | IRAK-1-4 Inhibitor I -0.007 | [9] 0.017 | ralimetinib -0.006 | [10] 0.005 | [11] 0.044 | [12] 0.011 | [13] -0.037 | [14] 0.013 | [15] -0.04 | [16] 0.038

CLP1 (UniProt Q92989)
inactive: erlotinib 0.024 | [1] 0.027 | [2] -0.011 | [3] -0.001 | [4] -0.045 | [5] -0.014 | [6] 0.034 | [7] -0.024 | [8] -0.033 | IRAK-1-4 Inhibitor I -0.045 | [9] 0.062 | ralimetinib 0.006 | [10] 0.003 | [11] 0.012 | [12] 0.023 | [13] 0.001 | [14] -0.02 | [15] -0.037 | [16] 0.01

CLPTM1L (UniProt Q96KA5)
inactive: erlotinib -0.019 | [1] 0.014 | [2] -0.143 | [3] -0.01 | [4] 0.009 | [5] -0.052 | [6] -0.197 | [7] -0.059 | [8] 0.091 | IRAK-1-4 Inhibitor I -0.01 | [9] -0.011 | ralimetinib 0.041 | [10] -0.041 | [11] 0.048 | [12] 0.058 | [13] 0.081 | [14] -0.024 | [15] 0.039 | [16] -0.005

CLUH, A0A494C0R8
inactive: erlotinib 0.077 | [1] -0.023 | [2] -0.041 | [3] 0.02 | [4] 0.225 | [5] 0 | [6] -0.114 | [7] 0.05 | [8] -0.063 | IRAK-1-4 Inhibitor I 0.008 | [9] 0.138 | ralimetinib 0.053 | [10] -0.043 | [11] 0.002 | [12] -0.128 | [13] 0 | [14] 0.016 | [15] -0.035 | [16] 0.029

CLTA (UniProt P09496)
inactive: erlotinib -0.047 | [1] -0.008 | [2] -0.054 | [3] -0.025 | [4] -0.014 | [5] -0.007 | [6] 0.025 | [7] 0.025 | [8] -0.047 | IRAK-1-4 Inhibitor I -0.017 | [9] -0.015 | ralimetinib 0.008 | [10] 0.007 | [11] -0.04 | [12] -0.053 | [13] 0.022 | [14] -0.011 | [15] -0.037 | [16] 0.011

CLTA isoform 2 (UniProt P09496)
inactive: erlotinib -0.133 | [1] -0.036 | [2] -0.005 | [3] -0.06 | [4] -0.071 | [5] 0.017 | [6] 0.01 | [7] -0.083 | [8] -0.001 | IRAK-1-4 Inhibitor I -0.032 | [9] -0.007 | ralimetinib 0.066 | [10] 0.016 | [11] -0.006 | [12] -0.024 | [13] -0.015 | [14] 0.032 | [15] 0.013 | [16] -0.031

CLPX (UniProt O76031)
inactive: erlotinib -0.002 | [1] -0.033 | [2] 0.011 | [3] 0.044 | [4] 0.043 | [5] 0.012 | [6] 0.009 | [7] 0.013 | [8] -0.003 | IRAK-1-4 Inhibitor I 0.02 | [9] -0.001 | ralimetinib -0.01 | [10] 0 | [11] 0.016 | [12] 0 | [13] -0.05 | [14] -0.008 | [15] 0.019 | [16] -0.01

CHTOP isoform 3 (UniProt Q9Y3Y2)
inactive: erlotinib 0.051 | [1] -0.337 | [2] 0.036 | [3] 0.016 | [4] -0.04 | [5] -0.005 | [6] -0.001 | [7] 0.117 | [8] -0.007 | IRAK-1-4 Inhibitor I -0.059 | ibrutinib 0.075 | [9] -0.099 | ralimetinib 0.016 | [10] -0.075 | [11] 0.157 | [13] 0.03 | [14] 0.015 | [15] 0.099 | [16] -0.028

CLCN3 isoform 2 (UniProt P51790)
inactive: erlotinib 0.003 | [1] 0.083 | [2] -0.061 | [3] -0.005 | [4] -0.004 | [5] -0.042 | [6] 0.013 | [7] -0.032 | [8] 0.029 | IRAK-1-4 Inhibitor I 0.068 | [9] 0.029 | ralimetinib 0.02 | [10] -0.032 | [11] -0.035 | [12] -0.017 | [13] -0.066 | [14] 0.029 | [15] 0.048 | [16] -0.013

CLIP1 isoform 1 (UniProt P30622)
inactive: erlotinib -0.025 | [1] -0.026 | [2] 0.019 | [3] -0.005 | [4] -0.018 | [5] 0.005 | [6] 0.002 | [7] 0 | [8] -0.012 | IRAK-1-4 Inhibitor I 0.007 | [9] -0.005 | ralimetinib 0.004 | [10] 0 | [11] -0.008 | [12] -0.01 | [13] -0.016 | [14] 0.006 | [15] 0.003 | [16] -0.004

Fetched one by one from the list above (2):
CLIP1 isoform 1 (UniProt P30622)
inactive: erlotinib -0.025 | [1] -0.026 | [2] 0.019 | [3] -0.005 | [4] -0.018 | [5] 0.005 | [6] 0.002 | [7] 0 | [8] -0.012 | IRAK-1-4 Inhibitor I 0.007 | [9] -0.005 | ralimetinib 0.004 | [10] 0 | [11] -0.008 | [12] -0.01 | [13] -0.016 | [14] 0.006 | [15] 0.003 | [16] -0.004

CLTA isoform 2 (UniProt P09496)
inactive: erlotinib -0.133 | [1] -0.036 | [2] -0.005 | [3] -0.06 | [4] -0.071 | [5] 0.017 | [6] 0.01 | [7] -0.083 | [8] -0.001 | IRAK-1-4 Inhibitor I -0.032 | [9] -0.007 | ralimetinib 0.066 | [10] 0.016 | [11] -0.006 | [12] -0.024 | [13] -0.015 | [14] 0.032 | [15] 0.013 | [16] -0.031

(cont.)

CLGN (UniProt O14967)
inactive: erlotinib 0.026 | [1] -0.058 | [2] 0.018 | [3] -0.003 | [4] 0.026 | [5] 0 | [6] -0.083 | [7] 0.024 | [8] 0.052 | IRAK-1-4 Inhibitor I 0.005 | [9] -0.021 | ralimetinib 0.027 | [10] -0.025 | [11] -0.051 | [12] -0.004 | [13] -0.002 | [14] 0 | [15] -0.002 | [16] -0.062
